Data set [1] has as its target T1, MS2 coat protein (Bacteriophage MS2) (UniProt P03612).
T1 sequence (looked up, limits assumed): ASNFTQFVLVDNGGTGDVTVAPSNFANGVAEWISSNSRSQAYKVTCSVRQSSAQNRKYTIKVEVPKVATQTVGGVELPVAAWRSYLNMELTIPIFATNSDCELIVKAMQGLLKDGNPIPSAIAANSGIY
Description: binding assay. To be noted: CITED literature affinity range, protein in cells, protein details: expressed from YCpCP in S. cerevisiae RS453.

Chains of the proteins cited; added tags and fusions are not shown. Lines headed by an entry give the natural chain unless they say otherwise; changes in a name come on top. Residues count along the entry.
UniProt P09012, 2-282: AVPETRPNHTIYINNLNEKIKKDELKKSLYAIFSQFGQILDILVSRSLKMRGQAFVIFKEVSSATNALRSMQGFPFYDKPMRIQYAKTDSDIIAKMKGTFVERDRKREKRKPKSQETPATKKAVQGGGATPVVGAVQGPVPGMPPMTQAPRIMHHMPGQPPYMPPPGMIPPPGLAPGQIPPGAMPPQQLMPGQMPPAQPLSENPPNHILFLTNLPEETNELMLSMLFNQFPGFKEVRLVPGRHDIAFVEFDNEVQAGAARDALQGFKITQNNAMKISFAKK

The target in data set [2] is U1A spliceosomal protein (UniProt P09012). Put plainly: binding assay. Particulars: CITED literature affinity range; protein in cells; protein details: expressed from YCpU1A in S. cerevisiae RS453.
In data set [3] the target is T2, IRP-1 (iron regulatory protein 1) (UniProt P21399).
T2 sequence (looked up, limits assumed): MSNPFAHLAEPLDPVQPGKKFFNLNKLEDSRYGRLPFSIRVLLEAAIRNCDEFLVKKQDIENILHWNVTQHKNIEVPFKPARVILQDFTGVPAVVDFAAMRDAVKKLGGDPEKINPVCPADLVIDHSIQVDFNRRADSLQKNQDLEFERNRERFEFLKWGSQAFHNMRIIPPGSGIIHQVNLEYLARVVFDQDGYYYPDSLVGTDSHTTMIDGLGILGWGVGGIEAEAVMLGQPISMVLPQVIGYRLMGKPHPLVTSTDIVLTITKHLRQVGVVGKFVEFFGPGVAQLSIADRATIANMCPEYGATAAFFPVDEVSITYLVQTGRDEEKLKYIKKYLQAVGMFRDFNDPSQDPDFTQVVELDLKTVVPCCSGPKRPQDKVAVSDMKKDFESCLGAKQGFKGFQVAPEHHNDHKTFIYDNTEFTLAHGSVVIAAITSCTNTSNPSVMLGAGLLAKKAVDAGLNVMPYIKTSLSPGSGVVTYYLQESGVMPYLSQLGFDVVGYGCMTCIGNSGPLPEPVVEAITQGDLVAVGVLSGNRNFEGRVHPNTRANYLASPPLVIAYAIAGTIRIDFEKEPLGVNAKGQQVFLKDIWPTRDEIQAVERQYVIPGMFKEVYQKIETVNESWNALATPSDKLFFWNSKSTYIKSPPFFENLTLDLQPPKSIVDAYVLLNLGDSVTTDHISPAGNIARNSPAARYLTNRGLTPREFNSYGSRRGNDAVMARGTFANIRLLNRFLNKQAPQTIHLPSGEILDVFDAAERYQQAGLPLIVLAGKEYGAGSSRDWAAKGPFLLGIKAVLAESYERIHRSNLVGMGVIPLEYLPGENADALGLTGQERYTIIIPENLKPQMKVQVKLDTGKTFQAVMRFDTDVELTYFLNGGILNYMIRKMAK
Description: activity in cells.

Data set [4] addresses T2, IRP-1 (iron regulatory protein 1). Description: binding assay. To be noted: CITED literature affinity range; protein in cells; protein details: expressed from YCpIRP-1 in S. cerevisiae RS453.
For data set [5], the target named is U1A spliceosomal protein (UniProt P09012). Description: activity in cells. Particulars: no GFP repression.

For part of these data: No signal at the amounts used counts as a negative. For part of these data: Tags and fusion partners may be left off the protein sequences shown. For part of these data: For at least one entry, the source does not settle the construct or the ends of the probe. For part of these data: Where cells or extracts were used, other partners may take part. For part of these data: A weaker result is weaker than the reference pair of the same experiment.

“AAUUAUCUACUUAAGGACCAUAAGGCCUUAAGAACACAAAACUCGAGAACAUAUUUUUAAUAUUAUG [MSA GFP 5'UTR]”: the binding result in data set [1] (printed mM but text p114 says micromolar range, variant of MSC GFP 5'UTR) was “binds more weakly”. For “AAUUAUCUACUUAAGCGAUUGCACUCCCGCUUAAGAACACAAAACUCGAGAACAUAUUUUUAAUAUUAUG [U1Awt (U1 snRNA loop 2) GFP 5'UTR]”, the binding result with U1A spliceosomal protein [2] was “binds”. Besides, the functional effect entry in data set [3] (non-cognate protein, no GFP repression, protein details: expressed from YCpIRP-1 in S. cerevisiae RS453) was “not active”. With “AAUUAUCUACUUAAGCUUCAACAGUGCUUGAACUUAAGAACACAAAACUCGAGAACAUAUUUUUAAUAUUAUG [IREwt GFP 5'UTR]”, the binding result in data set [4] is “binds”. In addition, the functional effect entry in data set [3] (GFP repression in yeast, galactose vs glucose, protein details: expressed from YCpIRP-1 in S. cerevisiae RS453) is “active”; with U1A spliceosomal protein [5] (non-cognate protein, protein details: expressed from YCpU1A in S. cerevisiae RS453), “not active”. On to “AAUUAUCUACUUAAGCUUCAAAGUGCUUGAACUUAAGAACACAAAACUCGAGAACAUAUUUUUAAUAUUAUG [IREmt GFP 5'UTR]”, for which the functional effect entry in data set [3] (mutant site, no GFP repression, protein details: expressed from YCpIRP-1 in S. cerevisiae RS453, variant of IREwt GFP 5'UTR) is given as “not active”. “AAUUAUCUACUUAAGGACCAUCAGGCCUUAAGAACACAAAACUCGAGAACAUAUUUUUAAUAUUAUG [MSC GFP 5'UTR]”: the binding result in data set [1] is recorded as “binds”. As to “AAUUAUCUACUUAAGCGAUUCAUCUCCCGCUUAAGAACACAAAACUCGAGAACAUAUUUUUAAUAUUAUG [U1Amt GFP 5'UTR]”, in the data set with U1A spliceosomal protein [5] (mutant site, protein details: expressed from YCpU1A in S. cerevisiae RS453, variant of U1Awt (U1 snRNA loop 2) GFP 5'UTR), the functional effect result is on record as “not active”.

(Values after patent publication US6635440.)
